Results are given in words; binding and its absence hold for the method and conditions named. Binding seen in cells or lysates may run through a third protein. Some entries that bind do so weakly or less than the wild type. Sequences can lack the tags named with a protein.
Target: SMAD1-FLAG (FLAG-tagged human SMAD1) (human) (UniProt Q15797)
Test: co-IP; lysates of transfected HEK293T cells incubated with the indicated antibody at 4 °C overnight, protein G Dynabeads 1 h, five washes in lysis buffer, western blot

The chains behind the UniProt entries cited, without tags or fusion partners.
UniProt Q15797: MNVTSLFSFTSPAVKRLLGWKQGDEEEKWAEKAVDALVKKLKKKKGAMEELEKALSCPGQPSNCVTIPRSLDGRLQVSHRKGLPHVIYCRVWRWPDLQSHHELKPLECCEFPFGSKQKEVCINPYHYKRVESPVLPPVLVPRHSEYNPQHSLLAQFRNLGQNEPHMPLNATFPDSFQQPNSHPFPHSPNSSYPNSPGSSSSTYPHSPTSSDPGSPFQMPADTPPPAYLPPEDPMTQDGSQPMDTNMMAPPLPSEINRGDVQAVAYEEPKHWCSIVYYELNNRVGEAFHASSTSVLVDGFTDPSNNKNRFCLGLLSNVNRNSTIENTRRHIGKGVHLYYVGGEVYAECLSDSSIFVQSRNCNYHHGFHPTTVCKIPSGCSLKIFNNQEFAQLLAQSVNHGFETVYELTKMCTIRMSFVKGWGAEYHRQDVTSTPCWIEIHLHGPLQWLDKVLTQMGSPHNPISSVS

- binding: binds
B1: ZSWIM4-Myc (Myc-tagged human Zinc Finger SWIM-Type Containing 4) (protein, UniProt Q9H7M6 1-989)
chain: MEPPAAKRSRGCPAGPEERDAGAGAARGRGRPEALLDLSAKRVAESWAFEQVEERFSRVPEPVQKRIVFWSFPRSEREICMYSSLGYPPPEGEHDARVPFTRGLHLLQSGAVDRVLQVGFHLSGNIREPGSPGEPERLYHVSISFDRCKITSVSCGCDNRDLFYCAHVVALSLYRIRHAHQVELRLPISETLSQMNRDQLQKFVQYLISAHHTEVLPTAQRLADEILLLGSEINLVNGAPDPTAGAGIEDANCWHLDEEQIQEQVKQLLSNGGYYGASQQLRSMFSKVREMLRMRDSNGARMLILMTEQFLQDTRLALWRQQGAGMTDKCRQLWDELGALWVCVVLSPHCKPEERAGWLQLLSRWDKLDVCPLEEGNYSFDGPSLQPTMAPAPELLQKGSTCITNTEGWVGHPLDPIGCLCRALLEACRLEEETLTLYPDSGPEKRKVAYQHVPVPGSPGESYLVLALEVALLGLGQQRALPEGLYAQDKVVRNEEQLLALLEEVELDERLVQVLRKQAGLLLEGGPFSGFGEVLFRESVPMHTCARYLFTALLPHDPDLAYRLALRAMRLPILETAFPAGEPHPSPLDSIMSNRFPRWFILGHLETRQCELASTMLTAAKGDPKWLHTVLGSIQQNIHSPALLFKLAQDACKTATPVSAPPDTTLLGIALELGLQVMRMTLNVMTWRRREMVRWLVSCATEIGPQALMNIMQNWYSLFTPVEAATIVAVTGTTHATLLRLQLDTSRREELWACARTLALQCAMKDPQNCALPALTLCEKNHSAFEAAYQIVLDAAAGGLGHAHLFTVARYMEHRGLPLRAYKLATLALAQLSIAFNQDSHPAVNDVLWACSLSHSLGRHELSAIVPLIIRSIHCAPMLSDILRRWTLSAPGLGPLGARRAAKPLGADRAPLCQLLDAAVTAYITTSHSRLTHISPRHYGDFIEFLGKARETFLLAPDGHLQFSQFLENLKQTYKGKKKLMLLVRERFG

Reference: paper PMC10897318
